Experimental data: PubChem BioAssay AID504467 (National Center for Advancing Translational Sciences (NCATS), 2011)
In all, about 330,000 compounds went through this assay and about 7,700 (2.3%) were called active. Inconclusive results, whose numbers are uncertain, are shown with a selection of clear calls. The call rests on the fitted dose curve; in most records, active means well fitted inhibition curve with a large enough effect; inconclusive means small, poorly fitted or top-dose-only effect, or effect the other way; inactive means flat fitted curve, though single readings scatter. A potency beside an inconclusive call is a rough fit, not a confirmed value.

Assay: qHTS screen for small molecules that inhibit ELG1-dependent DNA repair in human embryonic kidney (HEK293T) cells expressing luciferase-tagged ELG1; further: nearly all actives have a fitted effect of over 55% in size
Details: HEK293T ELG1-luciferase reporter, luminescence, 16 h, DNA damage induced by 5-fluorouridine; activity change, negative = inhibition: at 46.1 µM (top of the series)
Outline: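 Cells (2,000 per well) received 5-fluorouridine plus test compound or DMSO and were incubated 16 hr at 37 °C, 5% CO2. Luciferase activity was read by luminescence 30 min after ONE-Glo addition; signal suppression marked inhibition of damage-induced ELG1 function.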
On the % scale 0 is the no-effect control and ±100 the full control effect; potency means the concentration at half of the fitted maximal effect.

| Compound | activity change, negative = inhibition | Potency |
| --- | --- | --- |
| CCOC(=O)[C@H]1[C@H]2COc3ccc(C)cc3[C@@H]2N2C(=O)c3ccc(F)cc3NC(=O)[C@@]12C | inactive: 16.1% | – |
| O=C1c2cccc(OCC(=O)N3N=C(c4cccs4)CC3c3ccc(F)cc3)c2CCN1Cc1cccnc1 (configuration not stated) | – | active: 18.4 µM |
| CC1=C(C(=O)OC2CCCCC2)C(c2cccc([N+](=O)[O-])c2)NC(=O)N1 (configuration not stated) | – | inconclusive: 32.6 µM [inhibitor, single point] |
| O=S(=O)(NCCCN1CCN(c2ccccc2F)CC1)c1cccc2cccnc12 | – | inconclusive: 20.6 µM [inhibitor, partial curve, poor fit] |
| Cc1cccc(N(C(=O)CCC(=O)Nc2ccccn2)C(C(=O)NC(C)C)c2ccc(O)cc2)c1 (configuration not stated) | inactive: -2.33% | – |
| CCOc1ccc(OCc2ccc(C(=O)N3CCCCC3)o2)cc1 | – | inconclusive: 25.9 µM [activator, partial curve, poor fit] |
| O=C(Nc1nc2ccc([N+](=O)[O-])cc2s1)c1c(F)cccc1F | – | inconclusive: 32.6 µM [inhibitor, partial curve, poor fit] |
| CC(C)(C)C1CCC(=NNC(=O)C2COc3ccccc3O2)CC1 (configuration not stated) | – | inconclusive: 10.3 µM [activator, partial curve, poor fit] |
| CC(C)(C)c1ccc(C(=O)NN=C2CCCC2)cc1 | – | inconclusive: 1.03 µM [activator, full curve, poor fit] |
| O=C(Nc1ccc(Cl)cc1F)C1CCN(S(=O)(=O)c2cccc3nonc23)CC1 | – | inconclusive: 18.3 µM [activator, single point] |
| COc1cc(OC)c(NC(=O)c2cncn2-c2ccc(F)cc2)cc1Cl | inactive: -7.97% | – |
| N/C(=N\OC(=O)c1ccc2c(c1)OCO2)c1cccc(Br)c1 | – | inconclusive: 18.3 µM [activator, partial curve] |
| NNC(=O)c1ccc(Cn2cc(Cl)cn2)cc1 | – | inconclusive: 32.6 µM [activator, partial curve, poor fit] |
| C=CCOc1cccc(/C=C2\C(=O)N(Cc3ccc(C)cc3)C(C)=C2C(=O)OC)c1 | – | inconclusive: 32.6 µM [inhibitor, single point] |
| NC(=O)c1ccc(-c2noc(-c3cccc(Cl)c3)n2)cc1 | – | inconclusive: 13 µM [activator, partial curve] |
| C=CCN(C(=O)CSC1=NC(=O)CN1C(C)=O)c1nc(C)c(-c2ccccc2)s1 | – | inconclusive: 23.1 µM [activator, partial curve] |
| CC(=O)c1cccc(NC(=O)c2cc3ccccn3n2)c1 | – | inconclusive: 5.8 µM [activator, partial curve] |

2 of these compounds, reformatted:
Compound	activity change, negative = inhibition	Potency
O=C(Nc1nc2ccc([N+](=O)[O-])cc2s1)c1c(F)cccc1F	–	inconclusive: 32.6 µM [inhibitor, partial curve, poor fit]
CC(=O)c1cccc(NC(=O)c2cc3ccccn3n2)c1	–	inconclusive: 5.8 µM [activator, partial curve]
